Measurements: PubChem BioAssay AID504847 (National Center for Advancing Translational Sciences (NCATS), 2011)
In all, about 400,000 compounds went through this assay and about 3,700 (0.93%) were called active. This list was built around the results that the source calls inconclusive (neither active nor inactive); the mix of calls is not that of the screen. Calls come from the whole dose curve; as a rule, active = well fitted inhibition curve with a large enough effect; inconclusive = small, poorly fitted or top-dose-only effect, or another doubt; inactive = no such curve, though single readings can be large or run the other way. Potencies of inconclusive entries are doubtful fits and often do not repeat.

Protein sequences, listed by entry. Tags and fused reporters are not part of them. Lines headed by an entry give the natural chain unless they say otherwise; changes in a name come on top.
UniProt P11473: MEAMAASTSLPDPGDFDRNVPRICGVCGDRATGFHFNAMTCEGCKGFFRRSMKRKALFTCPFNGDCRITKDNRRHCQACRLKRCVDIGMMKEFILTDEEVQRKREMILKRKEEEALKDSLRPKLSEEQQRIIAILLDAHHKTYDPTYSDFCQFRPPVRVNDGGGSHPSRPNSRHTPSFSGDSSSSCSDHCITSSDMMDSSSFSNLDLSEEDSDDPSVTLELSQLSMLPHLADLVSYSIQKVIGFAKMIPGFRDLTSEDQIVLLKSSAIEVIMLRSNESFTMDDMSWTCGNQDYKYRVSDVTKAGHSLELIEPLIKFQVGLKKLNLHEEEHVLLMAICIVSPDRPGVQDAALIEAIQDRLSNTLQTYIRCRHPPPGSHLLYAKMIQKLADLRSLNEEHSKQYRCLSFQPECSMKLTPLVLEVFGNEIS

target: Vitamin D3 receptor (Homo sapiens) (UniProt P11473); test: Inhibitors of the vitamin D receptor (VDR): qHTS; conditions: VDR-SRC2-3 peptide fluorescence polarization, 2 h; max response, negative = inhibition: stronger effect = lower value
Summary of the method: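 Two reagent solutions held at 4 deg C in the dark were dispensed, compounds pinned at 23 nl, and the mixture incubated 2 h at room temperature. Read-out: fluorescence polarization of VDR–SRC2-3 peptide binding.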
% is set by controls: 0 for no effect and ±100 for the full control effect; potency is the fitted concentration of half-maximal effect.

Potency, inconclusive:
COc1cc(/C=C2/C(=N)N3C(=NC2=O)SN=C3S(C)(=O)=O)ccc1OC(=O)c1ccco1 63.1 µM [inhibitor, partial curve, poor fit]
O=C1NC(=S)NC(=O)C1Nc1ccc(Cl)cc1 56.2 µM [inhibitor, partial curve, poor fit]
COc1c(OC(C)=O)ccc(/C=N\NC(=O)c2ccc(Br)cc2)c1[N+](=O)[O-] 44.7 µM [inhibitor, partial curve]
CC1Cc2ccccc2N1C(=O)CCS(=O)(=O)c1cccs1 (stereo not drawn) 70.8 µM [inhibitor, partial curve, poor fit]
CCC(=O)OC1(C)C(=O)C2=COC(c3ccc(OC)cc3)=CC2=C(Br)C1=O (stereo not drawn) 63.1 µM [inhibitor, partial curve, poor fit]
CSc1ncccc1C(=O)OCC(=O)NC1CCC(C)CC1 (stereo not drawn) 89.1 µM [inhibitor, partial curve, poor fit]
Cc1ccc(C)c(-n2c3nc(=O)[nH]c(=O)c-3cc3cc([N+](=O)[O-])ccc32)c1 56.2 µM [inhibitor, partial curve, poor fit]
CC[C@H](C)[C@H](NC(=O)[C@H](CCCNC(=N)N)NC(=O)[C@@H](NC(=O)[C@H](CCCNC(=N)N)NC(=O)[C@H](CCCCN)NC(=O)[C@H](CCCNC(=N)N)NC(=O)[C@@H](NC(=O)[C@H](CC(N)=O)NC(=O)[C@@H](N)CS)[C@@H](C)O)[C@@H](C)CC)C(=O)N[C@@H](CCC(N)=O)C(=O)N[C@@H](CCCNC(=N)N)C(=O)NCC(=O)N1CCC[C@H]1C(=O)NCC(=O)N[C@@H](CCCNC(=N)N)C(=O)N[C@@H](C)C(=O)N[C@@H](Cc1ccccc1)C(=O)N[C@H](C(=O)N[C@H](C(=O)N[C@H](C(=O)NCC(=O)N[C@@H](CCCCN)C(=O)O)[C@@H](C)CC)[C@@H](C)O)C(C)C 79.4 µM [inhibitor, partial curve]
Cc1cc(OCC(=O)OCC(=O)c2c(N)n(C)c(=O)n(C)c2=O)ccc1Cl 89.1 µM [inhibitor, single point]
COc1ccc(NC(=O)c2ccco2)cc1NC(=O)c1cccc(C)c1OC 89.1 µM [inhibitor, single point]
CC(C(=O)OCC(=O)c1ccc([N+](=O)[O-])cc1)N1C(=O)C2C3CCC(C3)C2C1=O (stereo not drawn) 22.4 µM [inhibitor, partial curve, poor fit]
Cn1cccc1C(=O)/C(C#N)=C/c1ccc(F)cc1 56.2 µM [inhibitor, partial curve, poor fit]
O=C1c2ccccc2-c2onc3ccc(N4CCCC4)c1c23 56.2 µM [inhibitor, partial curve, poor fit]
CC(C)S(=O)(=O)C1=NSC2=NC(=O)/C(=C\c3ccc(-c4ccccc4)o3)C(=N)N21 100 µM [inhibitor, single point]
Cc1ccc(S(=O)(=O)c2ncccc2[N+](=O)[O-])cc1 89.1 µM [inhibitor, partial curve, poor fit]
CNC(=O)c1nc(C)n(-c2ccc(Cl)cc2Cl)n1 28.2 µM [inhibitor, full curve, poor fit]
O=C1NC(Cc2ccc(O)cc2)c2nc3ccc(F)cc3c(=O)n2-c2cc(Cl)ccc21 (stereo not drawn) 63.1 µM [inhibitor, partial curve, poor fit]
CCCCn1nc(NC(=O)CC(C)C)c2cc3cc(OC)ccc3nc21 2.51 µM [inhibitor, partial curve, poor fit]
O=c1c2ccccc2sn1-c1ccc(S(=O)(=O)N2CCCC2)cc1 56.2 µM [inhibitor, partial curve, poor fit]
CCOC(=O)C1CCN(S(=O)(=O)c2ccc3c(c2)N(C(C)=O)CC(C)S3)CC1 (stereo not drawn) 39.8 µM [inhibitor, partial curve, poor fit]
COc1ccccc1/C=C/C(=O)NNC(=O)c1cc(C)oc1C 89.1 µM [inhibitor, single point]
CN(CC(=O)Nc1ccccc1C(F)(F)F)CC(=O)N1CCCCCC1 89.1 µM [inhibitor, single point]
CCOC(=O)c1c(/N=C/c2cccc([N+](=O)[O-])c2O)sc(C)c1C 89.1 µM [inhibitor, single point]
CCOc1cc2c3c(c1)C(C)CC(C)(C)N3C(=O)C2=O (stereo not drawn) 79.4 µM [inhibitor, partial curve]
C1=C(CCNc2nnnn2-c2ccccc2)CCCC1 25.1 µM [inhibitor, partial curve, poor fit]
N#C/C(=C/c1cccc(O)c1)C(=O)NCc1ccc(Cl)cc1 5.62 µM [inhibitor, full curve, poor fit]
CCOc1ccc(N2C(=O)/C(=C\c3ccccc3OC)S(=O)(=O)C2c2cccc([N+](=O)[O-])c2)cc1 (stereo not drawn) 39.8 µM [inhibitor, partial curve, poor fit]
O/N=C/c1ccccc1Oc1ccc(Cl)cc1 22.4 µM [inhibitor, partial curve]
CCCC(=O)Nc1cc(OC)c(C(=O)OC)cc1Cl 89.1 µM [inhibitor, partial curve, poor fit]
CCCCC1=CC2=C(OC(C)=O)C(=O)C(C)(OC(=O)CC)C(=O)C2=CO1 (stereo not drawn) 79.4 µM [inhibitor, single point]
CCc1nnc(NS(=O)(=O)c2ccc(NC(=S)NC(=O)/C=C/c3ccc(F)cc3)cc2)s1 100 µM [inhibitor, single point]
Clc1ccc(-c2noc(/C=C/c3ccccc3)n2)cc1 89.1 µM [inhibitor, partial curve, poor fit]
COc1ccc(NC(=O)CS(=O)(=O)c2cccc(Cl)c2)cc1 39.8 µM [inhibitor, single point]
O=C(O)COc1ccccc1/C=N/NC(=O)c1cccc(S(=O)(=O)N2CCOCC2)c1 63.1 µM [inhibitor, single point]
CC(=O)N1CCc2c(sc(NC(=O)c3ccc([N+](=O)[O-])o3)c2C#N)C1 89.1 µM [inhibitor, single point]
O=C(N/N=C/c1ccc(N2CCOCC2)o1)c1cccc([N+](=O)[O-])c1 50.1 µM [inhibitor, partial curve, poor fit]

Taken from the listing (two entries):
Potency, inconclusive:
CCOc1cc2c3c(c1)C(C)CC(C)(C)N3C(=O)C2=O (stereo not drawn) 79.4 µM [inhibitor, partial curve]
C1=C(CCNc2nnnn2-c2ccccc2)CCCC1 25.1 µM [inhibitor, partial curve, poor fit]

Next part:

Potency, active:
CC1=NNC(=O)C1C(c1ccc(Cl)cc1)C(C#N)C#N (stereo not drawn) 79.4 µM
O=C(CN1C(=O)CC(c2ccco2)Sc2ccccc21)Nc1ccccc1F (stereo not drawn) 79.4 µM
O=C(COc1cccnc1[N+](=O)[O-])c1ccc(Cl)s1 50.1 µM
COc1cc(N=c2ssnc2Cl)c(OC)cc1Cl 15.8 µM
Cc1cc(C)c2c(=O)n(CC(=O)Nc3ccc(Cl)cc3)sc2n1 39.8 µM
CCOC(=O)c1c(NC(=O)CSc2nnnn2-c2ccc(OC)cc2)sc(C)c1C 17.8 µM
CC(=O)/C=C1\C(=O)N(C)c2ccccc21 25.1 µM
S=c1ncc2[nH]c(=S)[nH]c2[nH]1 31.6 µM
c1ccc(CNc2nc(-c3ccoc3)nc3ccccc23)cc1 31.6 µM

Max response, negative = inhibition, inactive:
C/C(CCC(C)C)=N\NC(=S)Nc1cc(S(=O)(=O)N2CCOCC2)ccc1N1CCOCC1 6.4%
c1cncc(-c2nn3c(Cn4cnc5ccccc54)nnc3s2)c1 -99%
CCOC(=O)CC1(C)OCC(C[N+]2(C)CCCCC2)O1 (stereo not drawn) -14.8%
O=c1[nH]c(/C=C/c2ccc(Br)cc2)nc2ccccc12 16%
CC(C)(C)OC(=O)C[C@@H]1C/C=C\C[C@H](CC(=O)N(CCO)Cc2ccccc2)C(=O)NCCOC1=O 17%
CC(C)(C)N(CC(=O)NC1CCCCC1)C(=O)CS(=O)CC(=O)Nc1ccc(F)cc1 (stereo not drawn) -3.66%
O=C(O)c1ccc(COc2ccc3ccccc3c2/C=C2/NC(=O)N(Cc3ccc(F)cc3)C2=O)cc1 -5%
Cc1cc(N2CCN(C)CC2)nc2ccc(NC(=O)Nc3ccc(F)cc3)cc12 13.7%
O=C(CSc1nccn1Cc1ccco1)Nc1ccc(OC(F)(F)F)cc1 13.1%
Cc1ccc(NC(=O)c2ccc(F)cc2)nc1 -8.33%
Cc1cc(C)nc(SCc2n[nH]c(=S)n2C)n1 3.74%
COc1ccc2c(c1)SCCC2=O 10.3%
O=C(O)C1=C(Nc2ccccc2)OCC1=O -16.9%
Cc1cc(/C=C(\C#N)C(=O)NCc2cccs2)c(C)n1-c1ccccc1F -18.5%
NNC(=O)CN1C(=O)Nc2ccc(Cl)cc2C1c1ccccc1 (stereo not drawn) 4.77%
COc1cccc(NC(=O)c2sc(-n3nc(C)c(Cc4ccccc4Cl)c3C)nc2C)c1 12.4%
C=C[C@]1(C)C=C2CCC3[C@](C)(CCC[C@@]3(C)C(=O)O)C2CC1 (stereo partly drawn) -12.1%
S=C(Nc1ccc2c(c1)OCO2)Nc1ccc2c(c1)OCO2 -21.4%
